Experimental data: article PMC3502335
The exact form of at least one protein or probe is not confirmed. Where cells or extracts were used, other partners may take part. At least one verdict was read from the data and is not stated in words by the source. Protein sequences can lack the tags named with them.

Biological target: T1, Stat5bCA (constitutively active) N642H (rat) (UniProt P52632)
T1 sequence (looked up, limits assumed): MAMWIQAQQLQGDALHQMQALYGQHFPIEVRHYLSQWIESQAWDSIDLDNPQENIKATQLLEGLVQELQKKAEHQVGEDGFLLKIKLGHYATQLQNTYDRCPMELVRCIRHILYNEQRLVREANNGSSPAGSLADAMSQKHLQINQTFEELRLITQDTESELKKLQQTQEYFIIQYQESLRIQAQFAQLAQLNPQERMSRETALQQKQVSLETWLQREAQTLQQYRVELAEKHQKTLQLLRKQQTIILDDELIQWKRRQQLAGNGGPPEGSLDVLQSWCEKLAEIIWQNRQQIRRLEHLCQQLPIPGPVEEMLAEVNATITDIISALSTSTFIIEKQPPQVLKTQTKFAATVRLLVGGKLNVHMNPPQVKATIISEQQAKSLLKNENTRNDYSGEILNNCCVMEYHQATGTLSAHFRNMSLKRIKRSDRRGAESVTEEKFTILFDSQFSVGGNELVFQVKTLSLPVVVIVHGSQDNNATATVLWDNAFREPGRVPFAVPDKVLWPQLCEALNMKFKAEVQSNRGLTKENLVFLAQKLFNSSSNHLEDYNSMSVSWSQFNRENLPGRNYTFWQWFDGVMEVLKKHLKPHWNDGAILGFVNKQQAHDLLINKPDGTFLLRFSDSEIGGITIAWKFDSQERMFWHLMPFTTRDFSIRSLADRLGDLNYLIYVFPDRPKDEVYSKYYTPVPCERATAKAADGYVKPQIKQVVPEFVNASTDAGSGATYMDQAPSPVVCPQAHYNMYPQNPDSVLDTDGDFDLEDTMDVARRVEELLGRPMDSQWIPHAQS
Assay: EMSA
Settings: low-affinity parent site; Cos-7 nuclear extract (1 ug for Kd, 2 ug for competition), 60 min at 4 C; 5% native PAGE in 1x TBE pH 8.3 at 20 C; probe 0.1-15 nM; binding buffer not given (ref 31); protein in a lysate after overexpression; protein details: Flag; label: 5'-Cy5.5 as probe, unlabeled as competitor

Sequence: TCTGCTTCTTAGAATGAAG (double strand) [R35]
- binding result: binds
